Publication PMC12259254
These are yes or no findings as the source states them, for the method shown. Binding seen in cells or lysates may run through a third protein. For part of these data: Binding can be weak; no strength is given. For part of these data: Tags and fused reporters may be left off the sequences shown.

Sequences of proteins named here, by UniProt entry; tags and fusion partners are left off. A change or cut given only in a name is not applied to a line headed by its entry.
UniProt O43791: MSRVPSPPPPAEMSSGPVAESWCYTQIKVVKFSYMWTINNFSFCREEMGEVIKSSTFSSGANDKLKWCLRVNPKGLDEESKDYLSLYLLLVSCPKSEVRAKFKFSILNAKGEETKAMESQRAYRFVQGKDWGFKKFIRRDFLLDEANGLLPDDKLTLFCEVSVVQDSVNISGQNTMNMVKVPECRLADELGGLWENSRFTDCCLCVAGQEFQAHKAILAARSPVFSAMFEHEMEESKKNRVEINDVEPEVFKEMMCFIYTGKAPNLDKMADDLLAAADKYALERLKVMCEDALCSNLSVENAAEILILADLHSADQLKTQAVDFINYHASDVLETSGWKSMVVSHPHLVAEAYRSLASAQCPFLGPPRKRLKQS
UniProt Q9H7D7: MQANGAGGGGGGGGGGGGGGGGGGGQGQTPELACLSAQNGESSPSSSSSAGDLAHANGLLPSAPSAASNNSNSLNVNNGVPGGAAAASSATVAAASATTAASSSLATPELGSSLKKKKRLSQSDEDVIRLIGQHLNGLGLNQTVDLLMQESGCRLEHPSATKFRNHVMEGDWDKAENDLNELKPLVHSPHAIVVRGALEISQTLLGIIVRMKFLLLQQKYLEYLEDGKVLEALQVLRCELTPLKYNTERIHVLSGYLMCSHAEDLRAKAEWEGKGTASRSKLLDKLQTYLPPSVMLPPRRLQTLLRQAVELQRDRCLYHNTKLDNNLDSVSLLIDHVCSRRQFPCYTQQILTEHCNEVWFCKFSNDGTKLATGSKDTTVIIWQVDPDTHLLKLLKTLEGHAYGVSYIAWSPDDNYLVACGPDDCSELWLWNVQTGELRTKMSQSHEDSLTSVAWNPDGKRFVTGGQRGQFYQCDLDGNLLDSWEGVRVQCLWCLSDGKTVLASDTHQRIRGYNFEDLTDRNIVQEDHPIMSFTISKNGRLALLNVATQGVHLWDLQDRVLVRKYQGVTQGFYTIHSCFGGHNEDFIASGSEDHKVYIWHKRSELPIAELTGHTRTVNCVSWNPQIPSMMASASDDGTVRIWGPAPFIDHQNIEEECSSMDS

Columns and labels:
Flag-LMNB2 WT (lamin B2) = biological target: T1, Flag-LMNB2 WT (lamin B2) (UniProt Q03252); test: co-IP; 293T cells transiently transfected with both tagged partners; IP buffer 50 mM Tris-HCl pH 7.4, 150 mM NaCl, 0.1% NP-40; HA/Flag/Myc agarose beads overnight at 4°C; also done in control and SPOP knockout cells
T1 sequence: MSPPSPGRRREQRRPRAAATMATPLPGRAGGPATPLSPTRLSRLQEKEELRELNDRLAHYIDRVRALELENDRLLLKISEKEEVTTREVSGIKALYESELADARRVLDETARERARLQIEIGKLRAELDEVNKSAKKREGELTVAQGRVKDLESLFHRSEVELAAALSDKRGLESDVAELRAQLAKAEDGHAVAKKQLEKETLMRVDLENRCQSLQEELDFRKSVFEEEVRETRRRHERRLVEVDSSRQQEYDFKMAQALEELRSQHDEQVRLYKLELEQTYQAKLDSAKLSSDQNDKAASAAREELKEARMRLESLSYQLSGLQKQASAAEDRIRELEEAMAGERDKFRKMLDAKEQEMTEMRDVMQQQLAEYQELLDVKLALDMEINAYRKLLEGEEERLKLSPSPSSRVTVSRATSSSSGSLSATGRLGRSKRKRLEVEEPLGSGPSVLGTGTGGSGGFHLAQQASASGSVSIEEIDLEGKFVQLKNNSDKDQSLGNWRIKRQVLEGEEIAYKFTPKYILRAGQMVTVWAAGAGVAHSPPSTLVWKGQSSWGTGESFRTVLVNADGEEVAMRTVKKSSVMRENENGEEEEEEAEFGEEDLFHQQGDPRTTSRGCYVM

Flag-LMNB2 ΔLTD = Flag-LMNB2 ΔLTD (UniProt Q03252); test: as above

Myc-SPOP ΔBTB (from UniProt O43791)
binding (Flag-LMNB2 WT (lamin B2)): binds

exogenous WDR26 (WD repeat domain 26), pCMV-WDR26-3×HA-Neo (from UniProt Q9H7D7 1-661)
binding (Flag-LMNB2 ΔLTD): no binding

Myc-SPOP ΔMATH (from UniProt O43791)
binding (Flag-LMNB2 WT (lamin B2)): no binding
